# Laboratory results reported in paper PMC9241928.
# Sequences of proteins named here, by UniProt entry; tags and fusion partners are left off.
# UniProt P15682: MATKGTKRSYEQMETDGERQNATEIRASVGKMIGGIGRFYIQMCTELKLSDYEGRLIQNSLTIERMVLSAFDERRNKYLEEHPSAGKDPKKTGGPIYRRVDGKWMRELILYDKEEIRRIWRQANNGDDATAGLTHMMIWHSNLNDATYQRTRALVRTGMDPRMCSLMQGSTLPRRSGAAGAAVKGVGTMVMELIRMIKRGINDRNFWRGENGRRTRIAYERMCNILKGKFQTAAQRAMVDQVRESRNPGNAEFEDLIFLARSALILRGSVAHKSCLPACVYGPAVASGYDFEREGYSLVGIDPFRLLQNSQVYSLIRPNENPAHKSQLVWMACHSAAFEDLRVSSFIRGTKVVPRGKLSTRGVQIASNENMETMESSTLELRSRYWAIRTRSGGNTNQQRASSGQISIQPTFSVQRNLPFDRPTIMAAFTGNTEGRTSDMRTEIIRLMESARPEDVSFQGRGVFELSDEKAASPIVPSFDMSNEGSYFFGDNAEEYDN
# UniProt P17844: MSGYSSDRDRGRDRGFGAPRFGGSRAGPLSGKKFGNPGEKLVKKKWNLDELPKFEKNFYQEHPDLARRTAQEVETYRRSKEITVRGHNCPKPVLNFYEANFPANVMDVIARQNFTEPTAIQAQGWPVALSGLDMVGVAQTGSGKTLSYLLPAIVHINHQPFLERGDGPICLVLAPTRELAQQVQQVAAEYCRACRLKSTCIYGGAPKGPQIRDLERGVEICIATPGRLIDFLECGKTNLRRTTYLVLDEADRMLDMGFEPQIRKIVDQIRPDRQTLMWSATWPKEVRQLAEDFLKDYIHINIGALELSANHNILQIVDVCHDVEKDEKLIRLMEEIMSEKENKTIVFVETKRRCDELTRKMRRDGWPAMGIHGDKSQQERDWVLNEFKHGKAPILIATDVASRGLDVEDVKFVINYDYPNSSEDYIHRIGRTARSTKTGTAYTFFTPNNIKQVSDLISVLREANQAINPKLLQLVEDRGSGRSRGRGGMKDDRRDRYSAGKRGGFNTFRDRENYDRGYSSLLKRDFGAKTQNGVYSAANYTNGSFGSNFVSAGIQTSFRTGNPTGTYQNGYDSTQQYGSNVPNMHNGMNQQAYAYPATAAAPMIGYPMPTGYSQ
# These are yes or no findings as the source states them, for the method shown. In cells and extracts the contact can be indirect. Some results given as binding are weak or reduced against the parent protein; the word gives no strength.
# Target: FLAG-NP of influenza virus A/WSN/1933 (H1N1) (influenza A virus A/WSN/1933 (H1N1)) (UniProt P15682)
# Experiment: co-IP
substance,measurement,value
"MYC-DDX5 (human DEAD-box helicase 5, full length) (from UniProt P17844 1-614)",binding,binds
